This note sets out measurements from PubChem BioAssay AID540335 (Broad Institute, 2011).

The campaign covered roughly 1,300 compounds. About 270 (21%) were called active.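 How the source made its calls: active means dose-dependent rise or fall in viability, either side of zero, with half-maximal concentration at or below a set limit; inconclusive means flat curve at 30 to 70% viability loss, or poor fit; inactive means flat within 30% either way, or potency beyond limit.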 The list shows a part of the results. Results with a measured potency or affinity are listed apart.

The assay in a line: A375 melanoma cell viability reduction, dose response, counter-screen for MITF modulator project, cherry-pick samples, set 2 (AID 540335).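 Further: A375 human melanoma cells which do not depend on MITF; 0% = median of neutral control wells and 100% = double that signal.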 The conditions noted are these: CellTiter-Glo ATP luminescence, 24 h; at 35 µM (top of the series). (In general: A counterscreen serves to expose hits that act by an unwanted route or on another target.)
Regarding `O=C(Nc1ccc(F)cc1F)c1cc2ccccc2oc1=O`, the activity change, negative = decreased viability was inactive: -5.16%.

For `COc1cccc(C(=O)Oc2c(CN3CCOCC3)cc(Cl)c3cccnc23)c1`, the activity change, negative = decreased viability is inactive: -37.8%.

As for `COc1cc(OC)cc(C(=O)Nc2ccc3c(c2)OCCO3)c1`, the activity change, negative = decreased viability is inactive: -32.1%.

In the case of `O=C(CCCCC(=O)NN=Cc1ccccc1O)NN=Cc1ccccc1O`, the activity change, negative = decreased viability is inactive: -2.24%.

As for `CCN1CCN(c2ccc(S(=O)(=O)N3CCCCC3)cc2NC(=O)/C=C/c2cccc(OC)c2OC)CC1`, the activity change, negative = decreased viability is inactive: -14.7%.

Regarding `CC(/C=C1\SC(=O)N(CCCC(=O)O)C1=O)=C\c1ccccc1`, the activity change, negative = decreased viability was inactive: -0.65%.

As to `CC1(C)Cc2c(sc(NC(=O)Nc3ccccc3)c2C(N)=O)CO1`, the activity change, negative = decreased viability was inactive: 5.17%.

`CS(=O)(=O)c1ccc2nc(NC(=O)c3ccccc3Br)sc2c1`: the activity change, negative = decreased viability was inactive: -3.48%.

For the compound `Cc1cccc(NC(=O)c2ccc([N+](=O)[O-])o2)c1C`, the activity change, negative = decreased viability is inactive: -10.1%.

On to `C=C1C(=O)O[C@@]23[C@H]1CC[C@@H](C)[C@@H]2CC[C@@]1(C)O[C@@H]31`, for which the activity change, negative = decreased viability was inactive: 2.09%.

Take `O=C(Nc1ccccc1)C1Cc2ccccc2CN1C(=O)c1ccco1` (stereo not given): the activity change, negative = decreased viability was inactive: -1.41%.

For `CCN1CCCC1CNC(=O)c1ccc2c(c1)NC(=O)/C(=C\c1ccc(OC)c(OC)c1)S2` (stereo not given), the activity change, negative = decreased viability was inactive: 0.004%.

As to `COC(=O)c1ccc(-n2c(C)cc(C(=O)CCl)c2C)cc1`, the activity change, negative = decreased viability was inactive: 2.38%.

In the case of `CCC(=O)NCCc1nc2cc(NC(=O)c3cccc([N+](=O)[O-])c3)ccc2n1C`, the activity change, negative = decreased viability is inactive: 1.21%.

With `O=C(O)c1ccc(C(=O)Nc2ccc(F)cc2)cc1`, the activity change, negative = decreased viability was inactive: -13.5%.

For `Oc1c(Cl)cc(Cl)cc1/C=N/Nc1ncc(Br)cn1`, the activity change, negative = decreased viability was inactive: -35.9%.

Regarding `CCOC(=O)c1sc(-c2ccccc2)cc1N`, the activity change, negative = decreased viability is inactive: -1.43%.

As for `COc1ccccc1N1CCN(/N=C/c2ccc([N+](=O)[O-])cc2)CC1`, the activity change, negative = decreased viability was inactive: -11.3%.

Turning to `CC(=O)Nc1cccc(-c2nnc(-c3ccccc3)o2)c1`, the activity change, negative = decreased viability was inactive: 11.6%.

For the compound `Cc1nc(NC(=O)/C=C/c2ccccc2)n[nH]1`, the activity change, negative = decreased viability was inactive: -26.7%.

As for `Cc1ccc(-n2nnnc2CNC(=O)c2ccc([N+](=O)[O-])o2)cc1C`, the activity change, negative = decreased viability was inactive: 9.47%.

Consider `Cc1ccc(-n2ncc3c(SCC(N)=O)ncnc32)cc1C`, for which the activity change, negative = decreased viability was inactive: 8.68%.

Take `CCOc1cc(/C=C(/C#N)c2ccc(Cl)cc2)cc(Cl)c1OCC(=O)O`: the activity change, negative = decreased viability is inactive: -0.225%.

As to `CC(=NNc1nc2ccccc2o1)c1cc2ccccc2cn1`, the activity change, negative = decreased viability is inactive: -38.7%.

Turning to `CCC(=O)OCCNc1cc(Sc2nccn2C)c2nonc2c1[N+](=O)[O-]`, the activity change, negative = decreased viability was inactive: 9.58%.

In the case of `COc1cc(-c2nnc(-c3ccco3)o2)ccc1OCc1ccccc1`, the activity change, negative = decreased viability is inactive: 4.59%.

With `O=C1c2ccccc2S(=O)(=O)N1Cc1nc2ccccc2s1`, the activity change, negative = decreased viability was inactive: -1.65%.

With `CC(=O)Oc1ccc(C)cc1-n1nc2ccccc2n1`, the activity change, negative = decreased viability is inactive: -15.9%.

For `O=C(NCc1csc(-c2cccs2)n1)C1CCC1`, the activity change, negative = decreased viability was inactive: 12.6%.

As to `COc1cc(NC(=O)c2ccc([N+](=O)[O-])o2)ccc1NC(=O)c1cccs1`, the activity change, negative = decreased viability was inactive: -28.9%.

On to `COc1ccc(C(=O)/C=C/C(=O)N(CC(=O)NC2CCCCC2)Cc2cccs2)c(O)c1`, for which the activity change, negative = decreased viability was inactive: -2.13%.

Turning to `C/C(=N\NC(=O)C(c1ccccc1)c1ccccc1)c1ccccn1`, the activity change, negative = decreased viability is inactive: -34.8%.

On to `c1cnc(SCCOc2ccc3c(c2)CCC3)nc1`, for which the activity change, negative = decreased viability is inactive: 1.24%.

For `O=C(c1cc2ccccc2oc1=O)N1CCN(c2ncccn2)CC1`, the activity change, negative = decreased viability is inactive: -20.7%.

For the compound `O=C(CCNc1ccccc1)c1ccc2c(c1)OCO2`, the activity change, negative = decreased viability was inactive: 10.6%.

In the case of `COc1ccc2oc(=O)c(C(=O)Nc3ccccc3C)cc2c1`, the activity change, negative = decreased viability was inactive: 7.75%.

For `O=C(c1ccc(F)cc1)N1CCC(c2ccccc2)C1` (stereo not given), the activity change, negative = decreased viability was inactive: 7.1%.

For `O=C(N/N=C/c1cccc2cccnc12)c1ccccc1O`, the activity change, negative = decreased viability is inactive: -38%.

`O=C(O)c1ccc(N/N=C/c2ccc(OC(=O)c3cccc(Cl)c3)cc2)cc1`: the activity change, negative = decreased viability is inactive: 1.31%.

As to `O=C(Nc1nc2cc3c(cc2s1)OCO3)C1=COCCO1`, the activity change, negative = decreased viability is inactive: -19.3%.

With `CCCCOC(=O)c1[nH]c(C)c(C(=O)OC)c1C`, the activity change, negative = decreased viability was inactive: 11.2%.

`O=C(CSc1nc2ccccc2[nH]1)c1ccc2c(c1)OCO2`: the activity change, negative = decreased viability was inactive: 5.51%.

As for `COc1cccc(NC(=O)c2cnn(-c3ccccc3)c2C)c1`, the activity change, negative = decreased viability was inactive: -1.05%.

For the compound `O=C(Nc1ccc(-c2nc3ncccc3o2)cc1)c1ccc([N+](=O)[O-])o1`, the activity change, negative = decreased viability was inactive: -6.72%.

As for `CN(c1cccc(NC(=O)COc2ccc(Cl)cc2Cl)c1)S(C)(=O)=O`, the activity change, negative = decreased viability was inactive: -2.24%.

As for `Cc1cc(C(C)(C)C)cc(C)c1Cn1c2[n+](c3ccc(C(F)(F)F)cc31)CCCCC2`, the activity change, negative = decreased viability was inactive: -33.6%.

In the case of `CC(C)(C)C(=O)Cn1ncc(Cl)c(Cl)c1=O`, the activity change, negative = decreased viability is inactive: 55.4%.

As for `C=CCSC(=S)NC1CCS(=O)(=O)C1` (stereo not given), the activity change, negative = decreased viability was inactive: -5.74%.

Regarding `Cn1cc(C(=O)CCl)c2ccccc21`, the activity change, negative = decreased viability was inactive: -8.83%.

For `CN1CCN(c2ccc(NC(=S)NC(=O)c3cccc4ccccc34)cc2)CC1`, the activity change, negative = decreased viability is inactive: -38.8%.

In the case of `O=C(NC1CCCCC1)C(c1cccnc1)N(C(=O)CCl)c1ccc(F)cc1` (stereo not given), the activity change, negative = decreased viability was inactive: -9.62%.

Take `Cc1cc(C(=O)CN2C(=O)c3ccccc3S2(=O)=O)c(C)n1-c1ccccc1`: the activity change, negative = decreased viability is inactive: 6.79%.

Consider `CC(C)(C)NC(=O)CCN(/N=C/c1ccc([N+](=O)[O-])o1)C1=NS(=O)(=O)c2ccccc21`, for which the activity change, negative = decreased viability is inactive: -15.5%.

Regarding `COCCn1c(C)cc(C(=O)CSc2nnc(C)s2)c1C`, the activity change, negative = decreased viability is inactive: -3.23%.

On to `Fc1ccc(-c2nnc(-c3ccc(F)cc3)o2)cc1`, for which the activity change, negative = decreased viability is inactive: -2.86%.

As for `O=C(Nc1ccc(N2CCOCC2)cc1)c1cnsn1`, the activity change, negative = decreased viability is inactive: 1.29%.

Consider `Cc1cc(C)cc(OCC(=O)N/N=C/c2ccc([N+](=O)[O-])o2)c1`, for which the activity change, negative = decreased viability is inactive: -0.821%.

In the case of `CC(O)CNC(=O)C1CCN(Cc2ccc(OCc3ccccc3)cc2)CC1` (stereo not given), the activity change, negative = decreased viability is inactive: 1.88%.

Regarding `O=C(c1cc2ccccc2oc1=O)N(Cc1ccccc1)C1CCS(=O)(=O)C1` (stereo not given), the activity change, negative = decreased viability was inactive: 1.48%.

For the compound `O=C(CNc1cccc2ccccc12)N/N=C/c1ccc([N+](=O)[O-])o1`, the activity change, negative = decreased viability was inactive: -18.9%.

With `Nc1c(-c2ccc(Cl)cc2)nnn1-c1ccccc1`, the activity change, negative = decreased viability was inactive: 11.1%.

With `[2H]C(CCOS(N)(=O)=O)c1ccc(C(C)(C)C)cc1` (stereo not given), the activity change, negative = decreased viability was inactive: -8.41%.

For `COc1ccccc1NS(=O)(=O)c1cc(NC(=O)c2ccc(Cl)nc2)ccc1Cl`, the activity change, negative = decreased viability was inactive: -3.13%.

As to `CC(=O)N(C1CC(C)C(C#N)(C#N)C1(C#N)C#N)N(C)C` (stereo not given), the activity change, negative = decreased viability was inactive: 51.1%.

Turning to `CCCCN=C(C)c1c(O)c2ccccc2oc1=O`, the activity change, negative = decreased viability was inactive: 9.28%.

On to `CCN(CC)CCC(=O)N1C/C(=C/c2ccccc2)C(=O)/C(=C\c2ccccc2)C1`, for which the activity change, negative = decreased viability is inactive: 71.7%.

Take `CCOc1cccc(C(=O)NC2=NCCS2)c1`: the activity change, negative = decreased viability was inactive: 1.86%.

As to `O=C(N/N=C/c1ccc([N+](=O)[O-])s1)c1ccccc1Br`, the activity change, negative = decreased viability was inactive: -17.8%.

Turning to `CC1CCCC(C)N1CCCNC(=O)c1cc2c(s1)-c1ccccc1OC2` (stereo not given), the activity change, negative = decreased viability is inactive: 2.66%.

With `Cc1ccc2oc(C(Cl)(Cl)Cl)cc(=O)c2c1`, the activity change, negative = decreased viability is inactive: -16.5%.

Take `C/C(=N\NC(=O)COc1ccccc1-c1ccccc1)c1ccccn1`: the activity change, negative = decreased viability is inactive: -22.8%.

As to `Cc1ccc(C2=NN(C(=O)CCl)C(c3cccs3)C2)o1` (stereo not given), the activity change, negative = decreased viability was inactive: 17.7%.

As for `Cn1cccc1C(=O)NC(=O)COC(=O)c1ccc(S(C)(=O)=O)c([N+](=O)[O-])c1`, the activity change, negative = decreased viability is inactive: 11.1%.

With `O=S(=O)(c1ccc(F)cc1)c1snnc1-c1ccccc1`, the activity change, negative = decreased viability was inactive: -41.1%.

For `O=C(Nc1cnc2ccccn2c1=O)c1ccc(F)cc1`, the activity change, negative = decreased viability is inactive: 4.12%.

For `COc1ccc(Cn2c(-c3ccc(C)cc3)c[n+]3ccccc23)cc1`, the activity change, negative = decreased viability is inactive: -16.4%.

`CC1=C/C(=N\NC(=S)Nc2cccnc2)CC(C)(C)C1`: the activity change, negative = decreased viability was inactive: -15.5%.

In the case of `Cc1cc(C(=O)COc2cccnc2[N+](=O)[O-])c(C)n1-c1ccccc1`, the activity change, negative = decreased viability is inactive: -0.063%.

In the case of `Cc1cc(C)c2ccc(N)nc2c1O`, the activity change, negative = decreased viability is inactive: -31.2%.

As for `CC1(C)CC(=O)c2cnc(N3CCc4ccccc43)nc2C1`, the activity change, negative = decreased viability is inactive: 6.75%.

Regarding `CSc1nc(N)n2nc(-c3ccc(Cl)cc3)cc2n1`, the activity change, negative = decreased viability was inactive: -0.632%.

`CC(C)c1ccc(/C=C2\SC(=S)N(CCC(=O)N3CCCCC3CCO)C2=O)cc1` (stereo not given): the activity change, negative = decreased viability was inactive: 5.77%.

On to `Cc1ccc(OCCCCN2CCCCC2)c(Br)c1`, for which the activity change, negative = decreased viability was inactive: 3.68%.

On to `C=C1C(=O)C2=CC1CCC(=O)C1(C)CCC(OC(C)=O)C(C)(C)C1CC2O` (stereo not given), for which the activity change, negative = decreased viability was inactive: 25.9%.

For the compound `CC(C)(C)c1ccc(-c2noc(CCC(=O)NCc3ccco3)n2)cc1`, the activity change, negative = decreased viability is inactive: -11.9%.

As to `C=CCNC(=O)Cn1nnc(-c2ccc(-c3ccc(OC)cc3)cc2)n1`, the activity change, negative = decreased viability was inactive: 4.23%.

As for `Cc1cc(C)c2sc(N(CCCN(C)C)C(=O)COc3ccc(Cl)cc3)nc2c1`, the activity change, negative = decreased viability was inactive: -86.6%.

On to `Cc1cc(/C(N)=N/OC(=O)Nc2ccc(Cl)cc2)no1`, for which the activity change, negative = decreased viability is inactive: 13.2%.

In the case of `COc1ccc(C(=O)C(CN2CCOCC2)c2ccccc2)cc1` (stereo not given), the activity change, negative = decreased viability is inactive: -14.1%.

As to `Cc1ccc(-c2noc(-c3ccno3)n2)cc1`, the activity change, negative = decreased viability is inactive: 11.5%.
